Data as given in US4863935A, “Mitomycin compounds having useful anti-tumor activity” (priority 1986, dated 1989).
The name of at least one read-out is uncertain.

Tested on: lymphocytic Leukemia P-388
Assay: Anti-tumour activity against lymphocytic Leukemia P-388 in mice
Assay type: in vivo, mouse, female of CDF strain
Details: dose resulting in the highest survival ratio; i.p. 24 h after implantation, 30 days
Source text: Also, their therapeutic indexes, expressed by the formula:
TI=(OPD)/(dose which results in ILS30),
against lymphocytic Leukemia P-388 and the maximum increased life spans (ILSmax), defined by the formula: […]
As used herein, the term "LD50 " denotes the acute toxicity. The term "ED50 " denotes the administered amount needed for reducing the volume of Sarcoma 180 solid tumours in animals to 50% of the corresponding tumour volume in control (untreated) animals. The term "WBC4000 " denotes the minimum dose of the drug needed to reduce the number of peripheral leucocytes to 4000/mm^3. A greater TI value results in a broader tolerance to the drug, which is advantageous for higher anti-tumour activity and decreased toxicity. The term "T" used herein denotes the average survival days of the test animals administered with the test compound. The term "C" denotes the average survival days of the control (untreated) animals. The term "OPD" denotes the dose of the drug resulting in the highest survival ratio. The term "ILS30 " denotes a 30% increase of life-span.
The experiment was carried out in the following manner. 1×10^6 lymphocytic Leukemia P-388 tumour cells were abdominally implanted into each mouse of a group consisting of 5 mice (body weight about 22 g; female of CDF strain). […]

CCNC(=O)SCCNC1=C(C)C(=O)C2=C(C1=O)[C@@H](COC(N)=O)[C@@]1(OC)[C@H]3N[C@H]3CN21 [Compound 23, 7-N--(2-ethylaminocarbonylthioethyl)mitomycin C]
OPD: 12.5 mg/kg
